{"source": "PubChem BioAssay AID493246 | Drosophila RNAi Screening Center, 2011", "purpose": "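Genome-wide search for dsRNAs that reduce cell number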 (primary screen)", "cell system": "Drosophila Kc and S2R+ cells", "knock-down reagent": "long dsRNA against Drosophila genes", "read-out": "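Cell number per well after knock-down, printed as raw plate values; calls were based on per-plate z-scores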", "scale": "Kc cell number and S2R+ cell number: higher = more cells remaining", "call rule": "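Active when the per-plate z-score of cell number is 3 or more in the direction of fewer cells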", "note": "In all, the deposit lists about 21,000 reagents; this is an unselected part of those with a known target gene and a result. In the full data, 429 (2%) were called active. 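Values are raw and not normalised between plates; calls rest on per-plate z-scores that were not deposited.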 Unmarked entries are inactive. Not given: the amount of reagent, the time to read-out."}
{"Gene": "Ca-beta", "amplicon": "DRSC02406", "Kc cell number, rep 1": 1.69e6, "Kc cell number, rep 2": 1.71e6, "S2R+ cell number, rep 1": 1.23e6, "S2R+ cell number, rep 2": 1.34e6}
{"Gene": "Ca-beta", "amplicon": "DRSC02407", "Kc cell number, rep 1": 1.57e6, "Kc cell number, rep 2": 1.61e6, "S2R+ cell number, rep 1": 1.19e6, "S2R+ cell number, rep 2": 1.34e6}
{"Gene": "Ca-beta", "amplicon": "DRSC03285", "Kc cell number, rep 1": 1.61e6, "Kc cell number, rep 2": 1.75e6, "S2R+ cell number, rep 1": 1.05e6, "S2R+ cell number, rep 2": 1.14e6}
{"Gene": "Ugt49B1", "amplicon": "DRSC04461", "Kc cell number, rep 1": 1.46e6, "Kc cell number, rep 2": 1.53e6, "S2R+ cell number, rep 1": 1.34e6, "S2R+ cell number, rep 2": 2.99e5}
{"Gene": "Idh3b", "amplicon": "DRSC16040", "Kc cell number, rep 1": 1.66e6, "Kc cell number, rep 2": 1.80e6, "S2R+ cell number, rep 1": 1.16e6, "S2R+ cell number, rep 2": 1.27e6}
{"Gene": "IKKbeta", "amplicon": "DRSC16714", "Kc cell number, rep 1": 1.55e6, "Kc cell number, rep 2": 1.63e6, "S2R+ cell number, rep 1": 1.21e6, "S2R+ cell number, rep 2": 1.27e6}
{"Gene": "eys", "amplicon": "DRSC00113", "Kc cell number, rep 1": 1.47e6, "Kc cell number, rep 2": 1.53e6, "S2R+ cell number, rep 1": 9.78e5, "S2R+ cell number, rep 2": 1.06e6}
{"Gene": "eys", "amplicon": "DRSC00402", "Kc cell number, rep 1": 1.47e6, "Kc cell number, rep 2": 1.50e6, "S2R+ cell number, rep 1": 1.01e6, "S2R+ cell number, rep 2": 1.17e6}
{"Gene": "eys", "amplicon": "DRSC00403", "Kc cell number, rep 1": 1.45e6, "Kc cell number, rep 2": 1.54e6, "S2R+ cell number, rep 1": 9.30e5, "S2R+ cell number, rep 2": 1.03e6}
{"Gene": "eys", "amplicon": "DRSC00695", "Kc cell number, rep 1": 1.32e6, "Kc cell number, rep 2": 1.46e6, "S2R+ cell number, rep 1": 1.01e6, "S2R+ cell number, rep 2": 9.71e5}
{"Gene": "CCT3", "amplicon": "DRSC16602", "Kc cell number, rep 1": 1.48e6, "Kc cell number, rep 2": 1.59e6, "S2R+ cell number, rep 1": 1.09e6, "S2R+ cell number, rep 2": 1.19e6}
{"Gene": "Gr5a", "amplicon": "DRSC18085", "Kc cell number, rep 1": 1.57e6, "Kc cell number, rep 2": 1.53e6, "S2R+ cell number, rep 1": 9.63e5, "S2R+ cell number, rep 2": 1.10e6}
{"Gene": "pon", "amplicon": "DRSC18823", "Kc cell number, rep 1": 1.47e6, "Kc cell number, rep 2": 1.48e6, "S2R+ cell number, rep 1": 1.05e6, "S2R+ cell number, rep 2": 1.14e6}
{"Gene": "Pgant9", "amplicon": "DRSC05621", "Kc cell number, rep 1": 6.23e5, "S2R+ cell number, rep 1": 7.53e5}
{"Gene": "Pgant9", "amplicon": "DRSC06584", "Kc cell number, rep 1": 1.68e6, "Kc cell number, rep 2": 1.67e6, "S2R+ cell number, rep 1": 1.18e6, "S2R+ cell number, rep 2": 1.28e6}
{"Gene": "Pgant9", "amplicon": "DRSC07185", "Kc cell number, rep 1": 1.74e6, "Kc cell number, rep 2": 1.69e6, "S2R+ cell number, rep 1": 1.29e6, "S2R+ cell number, rep 2": 1.43e6}
{"Gene": "Pgant9", "amplicon": "DRSC07186", "Kc cell number, rep 1": 1.82e6, "Kc cell number, rep 2": 1.80e6, "S2R+ cell number, rep 1": 1.30e6, "S2R+ cell number, rep 2": 1.44e6}
{"Gene": "Pgant9", "amplicon": "DRSC07187", "Kc cell number, rep 1": 1.95e6, "Kc cell number, rep 2": 2.00e6, "S2R+ cell number, rep 1": 1.20e6, "S2R+ cell number, rep 2": 1.42e6}
{"Gene": "Pgant9", "amplicon": "DRSC07189", "Kc cell number, rep 1": 1.73e6, "Kc cell number, rep 2": 1.75e6, "S2R+ cell number, rep 1": 1.18e6, "S2R+ cell number, rep 2": 1.39e6}

An excerpt from above, reduced to “S2R+ cell number, rep 2”:
eys [DRSC00403]: 1.03e6
eys [DRSC00695]: 9.71e5
